# In PMC7819943, “Rice protein-binding microarrays: a tool to detect cis-acting elements near promoter regions in rice”:
# Protein sequences, listed by entry. Tags and fused reporters are not part of them.
# UniProt Q0JBA9, entry or part of it: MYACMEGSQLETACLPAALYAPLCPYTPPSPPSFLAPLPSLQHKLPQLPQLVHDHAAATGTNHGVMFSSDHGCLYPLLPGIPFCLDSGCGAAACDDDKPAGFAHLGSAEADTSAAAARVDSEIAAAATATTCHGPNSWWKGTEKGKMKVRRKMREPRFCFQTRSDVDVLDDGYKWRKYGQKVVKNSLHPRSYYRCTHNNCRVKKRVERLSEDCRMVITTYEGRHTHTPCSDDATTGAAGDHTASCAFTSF
# The other results are listed elsewhere or left out.
# Target: OsWRKY34 (Oryza sativa, UniProt Q0JBA9 1-250)
# Experiment: protein-binding microarray (RPBM); PBS, 2% BSA, 51.3 ng/ul salmon testes DNA, 50 uM zinc acetate, 200 nM TF, 25 C, 1 h; high values mean tight binding
# Settings: protein: recombinant; tags: N-terminal polyhistidine and DsRed monomer fusion (pET32a); label: CyDye5-dUTP incorporated in the synthesized complementary strand; 3' TTTTT single-stranded linker to array surface; dsDNA, one strand shown
# Method in brief: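 Binding signal here means per-feature fluorescence intensity in arbitrary units. The values were read on an Axon 4000B scanner after a custom Agilent array, double-stranded by primer extension with Cy5-dUTP, was incubated with 200 nM protein at 25 °C for 1 h in PBS with 2% BSA, salmon testes DNA and 50 µM zinc acetate, then washed. The proteins were transcription factors with an N-terminal polyhistidine tag and DsRed, expressed in E. coli BL21-CodonPlus and purified on Ni–NTA.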
row,Sequence,binding signal
1,TTGGGAGGGAGAGTGGTAAAGGGTGCTGGGGCTTTGGCTGCGGAGTCACCTAGTGCAG,8840 fluorescence intensity (a.u.)
2,TTTTTATGGCTCCATGAAACCGTGATCATTCCTACAGTACCGGAGTCACCTAGTGCAG,8590 fluorescence intensity (a.u.)
3,ACCATCCCCACCATTCCACCGCCTTTGCCTCCCCGACCTCCGGAGTCACCTAGTGCAG,9650 fluorescence intensity (a.u.)
4,CGCCGCCACCATCACCTTCTTTGCCGCCAGAGCCAAGCCCCGGAGTCACCTAGTGCAG,9660 fluorescence intensity (a.u.)
5,TCATCTCTGTAAACGTTCACACATATGTTATTTTTATAAACGGAGTCACCTAGTGCAG,8340 fluorescence intensity (a.u.)
6,GTTTTGTTATAAGCGGTGGTTTTTTTTCTCGCGTTGAATACGGAGTCACCTAGTGCAG,8310 fluorescence intensity (a.u.)
7,TAATAAACGGCATCAGTTTCTCTCTTACCACACCTCGTTTCGGAGTCACCTAGTGCAG,9420 fluorescence intensity (a.u.)
8,ATGCCACTTAATTTTGACTTTTTTTTTTCTCAATTCATACCGGAGTCACCTAGTGCAG,14400 fluorescence intensity (a.u.)
9,TTAGTAGTATATCGTCACCAATTATTGTAGTTAGCTCCACCGGAGTCACCTAGTGCAG,9580 fluorescence intensity (a.u.)
10,GTACAATCTTTGTTACTCATGCTGTGTCCGGCTCTCTTCTCGGAGTCACCTAGTGCAG,8230 fluorescence intensity (a.u.)
11,TTCATCACAGTCTAGTACTTCTTGCACCTGCATCATCTGCCGGAGTCACCTAGTGCAG,9140 fluorescence intensity (a.u.)
12,CCATTTCTACTTCGCATCGACTATTTTATAAATTTATTTACGGAGTCACCTAGTGCAG,8590 fluorescence intensity (a.u.)
13,CACTCCTTTTCCATCGCGCTAACTCCCGTCGGCTCCTCCACGGAGTCACCTAGTGCAG,8110 fluorescence intensity (a.u.)
14,AGCCCATCTTGCTTTGTGTTGGCCCTCATCTACATGGAGACGGAGTCACCTAGTGCAG,8150 fluorescence intensity (a.u.)
15,TCTCCTATTCCATATCATCAACTTGTTCTTTTGCTAGTAGCGGAGTCACCTAGTGCAG,8030 fluorescence intensity (a.u.)
16,TCCTTTTCTCTCTGCGCCCATCTACTGTTGGTACTGAACTCGGAGTCACCTAGTGCAG,9020 fluorescence intensity (a.u.)
17,GATCGATCCGAGCTCCTTCCACCACACTCTCTCGCCGATGCGGAGTCACCTAGTGCAG,8210 fluorescence intensity (a.u.)
18,CTGGATGTGGCGATGAATTCGGTTGCCGTGCTTGGGGATGCGGAGTCACCTAGTGCAG,8720 fluorescence intensity (a.u.)
19,TCAGCCAAGAACGAGTTCATCTTCTTCTTCGTGTTGTTGTCGGAGTCACCTAGTGCAG,11100 fluorescence intensity (a.u.)
20,GATGGGATTGGGACAAAGATATGAGTGGAGGGTTGAGATGCGGAGTCACCTAGTGCAG,8600 fluorescence intensity (a.u.)
21,TTCTGTTTGACTATTTTGATTCAAAGGATTGAAGCTTTCCCGGAGTCACCTAGTGCAG,9160 fluorescence intensity (a.u.)

row,Sequence,binding signal
1,ACCAATTTCGCATGTGCGACCCGTGCAGCCCATCTCACGACGGAGTCACCTAGTGCAG,8790 fluorescence intensity (a.u.)
2,ACGTTGGCACTGACTTTTCAATTTTCACTCTCCATTCAGTCGGAGTCACCTAGTGCAG,11000 fluorescence intensity (a.u.)
3,ATTATTATATTGTATATTCGGCATTCTGCGTGTTAATTAACGGAGTCACCTAGTGCAG,8930 fluorescence intensity (a.u.)
4,GTTTCAAAATGTTTGACACCGTTGACTTTTTAGTACGTGTCGGAGTCACCTAGTGCAG,22500 fluorescence intensity (a.u.)
5,GCTTTGCCTTCTTATATATCCCTACTACTACTACAGCATCCGGAGTCACCTAGTGCAG,9880 fluorescence intensity (a.u.)
6,TATGTTTTTCTTTTTCCTGTGTTTTCTCAATCCTATGTTTCGGAGTCACCTAGTGCAG,9980 fluorescence intensity (a.u.)
7,TGGTTTTGTATAGTTTAGGGGTGAAGATTTCTGGTTTTGTCGGAGTCACCTAGTGCAG,8360 fluorescence intensity (a.u.)
8,TACTGGCTGTATCCATTTCTTGTATGTATTGTTTATGTATCGGAGTCACCTAGTGCAG,8770 fluorescence intensity (a.u.)
9,CGAACCGCCTGCCGAACAACGCGCAACCTCTCTCTCTCTCCGGAGTCACCTAGTGCAG,9830 fluorescence intensity (a.u.)
10,TATTATGCCCAGTTCGCCACCCAAAATATCTCGTCTTTTCCGGAGTCACCTAGTGCAG,12000 fluorescence intensity (a.u.)
11,GAAATACGCGTTCGCTATACAGGTTACGTACTCTCTGCTCCGGAGTCACCTAGTGCAG,10500 fluorescence intensity (a.u.)
12,CCCTGGCAAATGTTCTTTCTCCTCTATTTTCCATCTCCAACGGAGTCACCTAGTGCAG,9120 fluorescence intensity (a.u.)
13,ATTTTTTTTCTTGCTACCTCTCTCATCCACGTAAGTTTATCGGAGTCACCTAGTGCAG,9690 fluorescence intensity (a.u.)
14,CTGTTTTTATTCCTAATCATGAGTATATATGACATGTCTACGGAGTCACCTAGTGCAG,8700 fluorescence intensity (a.u.)
15,GCACCCTTCCTATTATTCCAATTATTCCATTTGTATGAAACGGAGTCACCTAGTGCAG,8590 fluorescence intensity (a.u.)
16,GCACGTTCACATTGTCGTCACGAAATAGAGTTCTTTGATGCGGAGTCACCTAGTGCAG,8100 fluorescence intensity (a.u.)
17,CACCTCCACTGCCCCGACCTCCATGGCTTCAGTCCCCAGTCGGAGTCACCTAGTGCAG,9120 fluorescence intensity (a.u.)
18,GCGGCCTTTTTGTTTACTGTTTTCTCTGTGCTTGAGTTATCGGAGTCACCTAGTGCAG,9820 fluorescence intensity (a.u.)
19,TCAAATCCAAGTGCACCACCCTCAACTTTGTTAGCTTCTTCGGAGTCACCTAGTGCAG,13200 fluorescence intensity (a.u.)
20,GCATGATTTTAAATCTTACATTAACTTTTGCATATATTCACGGAGTCACCTAGTGCAG,9530 fluorescence intensity (a.u.)
21,GCCTGCCAAGTGATGATCGTCCCGTTGACCCAAATTTTCGCGGAGTCACCTAGTGCAG,14200 fluorescence intensity (a.u.)

row,Sequence,binding signal
1,GGGTCCACATCTCTCTCCTATCCTCTTCTTCCTCACGCACCGGAGTCACCTAGTGCAG,9390 fluorescence intensity (a.u.)
2,TTGCTTGAGAAGTTCCATACATTGATTTTTGCAGACTGAACGGAGTCACCTAGTGCAG,8990 fluorescence intensity (a.u.)
3,ATTCTACATGTCACATATTACGTCCATTTGAGTTCAATTTCGGAGTCACCTAGTGCAG,9350 fluorescence intensity (a.u.)
4,TAGATGTGGGCTCCTTCTTTCTATGTGTTTCCTACCAGCTCGGAGTCACCTAGTGCAG,9680 fluorescence intensity (a.u.)
5,ACCTCACATAAGCTAAAAAAGCTTCTCCAACCTAGTTTTTCGGAGTCACCTAGTGCAG,9340 fluorescence intensity (a.u.)
6,CCAGCCCCTTCGACTTCCCGCCCTCGCACCATTTCCGTGACGGAGTCACCTAGTGCAG,10800 fluorescence intensity (a.u.)
7,ACTTTGTTTCCTTCCTTCTTGGACGTTATCTCTCACATTCCGGAGTCACCTAGTGCAG,11200 fluorescence intensity (a.u.)
8,GGCCAACATCACCATGTCAACATCGATCGCCGTCGACCTACGGAGTCACCTAGTGCAG,10600 fluorescence intensity (a.u.)
9,GTCAACGATCCGGCGTCTGTTCCACTTCTACCCTCCCATCCGGAGTCACCTAGTGCAG,8250 fluorescence intensity (a.u.)
10,AGGGAAGCACTAGCCACCATAGAACTCTCTCTCTTTTTCTCGGAGTCACCTAGTGCAG,9550 fluorescence intensity (a.u.)
11,TAAGTTCAGTTCCATTCCATCCACCAGTCGGCGTGACACTCGGAGTCACCTAGTGCAG,8470 fluorescence intensity (a.u.)
12,TGGATCCGCCCTGTAAGTCCACGGCCACCTACTCCATCGTCGGAGTCACCTAGTGCAG,8750 fluorescence intensity (a.u.)
13,GGGTTAATTGCATTTGGTCTTGTGGATATGCACGTGATTTCGGAGTCACCTAGTGCAG,8640 fluorescence intensity (a.u.)
14,CTCATCTAGGTTTGGATAGGTGTTTGACTACTAATTCATACGGAGTCACCTAGTGCAG,8800 fluorescence intensity (a.u.)
15,CTACCCTCGTTGCTCTTATCCACTCGCGCCTCGTACCACCCGGAGTCACCTAGTGCAG,11400 fluorescence intensity (a.u.)
16,ACACACTCTCTCTCTCTCTCTCTCTCTCTCTCTCTCTCTCCGGAGTCACCTAGTGCAG,10800 fluorescence intensity (a.u.)
17,AGCTAACATTAATACAGGTCTTCGTTTGACCAATGCTGTTCGGAGTCACCTAGTGCAG,9850 fluorescence intensity (a.u.)
18,TTTTTCGTTTTGTTTTTTTTTTCGTTAATTTGGCTTAACTCGGAGTCACCTAGTGCAG,8640 fluorescence intensity (a.u.)
19,TTAGAATGTGGACCCTTTTTATATCACGTGTCGTTTGTCACGGAGTCACCTAGTGCAG,11500 fluorescence intensity (a.u.)
20,TTGTGTTGTTCTGTAAAGATTTCTATAGATGCTTTATATTCGGAGTCACCTAGTGCAG,8120 fluorescence intensity (a.u.)
21,CATTCGTCGCCGCCCTCGCATTTTAGCATCGTCGTCTGGCCGGAGTCACCTAGTGCAG,8040 fluorescence intensity (a.u.)

# Some of the entries above, reformatted:
row | Sequence | binding signal
2 | TTGCTTGAGAAGTTCCATACATTGATTTTTGCAGACTGAACGGAGTCACCTAGTGCAG | 8990 fluorescence intensity (a.u.)
3 | ATTCTACATGTCACATATTACGTCCATTTGAGTTCAATTTCGGAGTCACCTAGTGCAG | 9350 fluorescence intensity (a.u.)
4 | TAGATGTGGGCTCCTTCTTTCTATGTGTTTCCTACCAGCTCGGAGTCACCTAGTGCAG | 9680 fluorescence intensity (a.u.)
5 | ACCTCACATAAGCTAAAAAAGCTTCTCCAACCTAGTTTTTCGGAGTCACCTAGTGCAG | 9340 fluorescence intensity (a.u.)
6 | CCAGCCCCTTCGACTTCCCGCCCTCGCACCATTTCCGTGACGGAGTCACCTAGTGCAG | 10800 fluorescence intensity (a.u.)

# Going on with the list:

row,Sequence,binding signal
1,TTTTTTTTCTGCAACCCTCTGTTGCAATCCTGTTCCCCATCGGAGTCACCTAGTGCAG,8420 fluorescence intensity (a.u.)
2,GCTCTGACACCTCGATTCACCCCGCCTCGCCGCCGGCCACCGGAGTCACCTAGTGCAG,8980 fluorescence intensity (a.u.)
3,GGCTCATCGTCATTCAGGTCTAGCTTGCTCCCGACCTCCTCGGAGTCACCTAGTGCAG,9000 fluorescence intensity (a.u.)
4,ATTTTGCTATATCTCACTCGAAAGATTTTTTCTTATCTCTCGGAGTCACCTAGTGCAG,8210 fluorescence intensity (a.u.)
5,AAACAGATTTGGTATATGTCCGTCTCTTTTATCCTTCTTTCGGAGTCACCTAGTGCAG,8970 fluorescence intensity (a.u.)
6,TTTTTTTCTCAATTCATACCTATTCTTGACTGTCTTTTTTCGGAGTCACCTAGTGCAG,11400 fluorescence intensity (a.u.)
7,ACCTCCACAAACTGGACCAATCTGGACGCTGTCCAATTCGCGGAGTCACCTAGTGCAG,8730 fluorescence intensity (a.u.)
8,ATCATTTGTGTTGTTTAATTAGGGTCCTATCCGTCAAATACGGAGTCACCTAGTGCAG,9080 fluorescence intensity (a.u.)
9,TGTGTTGGTGATGTCGATGTGTGGGTGGTGGTTTTTTTTTCGGAGTCACCTAGTGCAG,13800 fluorescence intensity (a.u.)
10,CTTCTGCGCCATTTTCCAGTGAACCAACTTTGCGAGCGACCGGAGTCACCTAGTGCAG,11700 fluorescence intensity (a.u.)
11,ATCAACGCTACGTATATGCGCGCCGTGTTACGTATCTCTTCGGAGTCACCTAGTGCAG,9040 fluorescence intensity (a.u.)
12,ATACCCTTTGACTAAAACCACCAGTACCCACCAGCTTCAACGGAGTCACCTAGTGCAG,9730 fluorescence intensity (a.u.)
13,GGTTAGGATAGCTCAAGACGGCATAGCTCATGAGTTGACCCGGAGTCACCTAGTGCAG,8280 fluorescence intensity (a.u.)
14,CCATCCGATCGCCATCATCTCATCATCAGTTCATCACCAACGGAGTCACCTAGTGCAG,10400 fluorescence intensity (a.u.)
15,AAGAGTTAGATTTGACTTTTTGAATTATTTGCTACTAACTCGGAGTCACCTAGTGCAG,9060 fluorescence intensity (a.u.)
16,CACGTTGTCCTCGCGTGCCTGGCTCGGCGGGCCCACCCGCCGGAGTCACCTAGTGCAG,10400 fluorescence intensity (a.u.)
17,ATAGCGACATTATTCTTCCTCTCACCTTGCCCCTTCACACCGGAGTCACCTAGTGCAG,8730 fluorescence intensity (a.u.)
18,TTACAATTAACACTACTGTCTATGTCTCAATTCATACTATCGGAGTCACCTAGTGCAG,9150 fluorescence intensity (a.u.)
19,AGCTGCGAGCTGTTTGTTTCTCTGGATTATTGAAGGCATCCGGAGTCACCTAGTGCAG,8890 fluorescence intensity (a.u.)
20,TTTTACGACTCTATTTTATCTTAGAACTCTGTTTTATTTTCGGAGTCACCTAGTGCAG,9020 fluorescence intensity (a.u.)
21,TTCGGCGGCCAGCCCGCCTCCTCCCCGATGCCTTTGCATCCGGAGTCACCTAGTGCAG,8950 fluorescence intensity (a.u.)
